Results are given in words; binding and its absence hold for the method and conditions named. Some results given as binding are weak or reduced against the parent protein; the word gives no strength.
Columns and labels:
[1] = biological target: pM-GRIP1(479-767) (Gal4 DNA-binding domain fused to the NR box of human GRIP1) (human) (UniProt Q15596); assay: two-hybrid; mammalian 2-hybrid in HepG2 cells; pVP16-VDR as prey, pM-SRC1, pM-GRIP1 or pM-ACTR (NR box fused to the Gal4 DNA-binding domain) as bait; 5XGal4-TATA-Luc reporter; 120 nM 1,25D3 for 24 h; without cotransfected pCDNA-RXRWT
[2] = biological target: pM-ACTR(392-1005) (Gal4 DNA-binding domain fused to the NR box of human ACTR) (human) (UniProt Q9Y6Q9); assay: as above
[3] = biological target: pM-ACTR(392-1005) (Gal4 DNA-binding domain fused to the NR box of human ACTR) (human) (UniProt Q9Y6Q9); assay: two-hybrid; mammalian 2-hybrid in HepG2 cells; pVP16-VDR as prey, pM-SRC1, pM-GRIP1 or pM-ACTR as bait; 5XGal4-TATA-Luc reporter; 120 nM 1,25D3 for 24 h; with cotransfected pCDNA-RXRWT

Sequences of proteins named here, by UniProt entry; tags and fusion partners are left off. Residues count along the entry.
UniProt Q15596, residues 479-767: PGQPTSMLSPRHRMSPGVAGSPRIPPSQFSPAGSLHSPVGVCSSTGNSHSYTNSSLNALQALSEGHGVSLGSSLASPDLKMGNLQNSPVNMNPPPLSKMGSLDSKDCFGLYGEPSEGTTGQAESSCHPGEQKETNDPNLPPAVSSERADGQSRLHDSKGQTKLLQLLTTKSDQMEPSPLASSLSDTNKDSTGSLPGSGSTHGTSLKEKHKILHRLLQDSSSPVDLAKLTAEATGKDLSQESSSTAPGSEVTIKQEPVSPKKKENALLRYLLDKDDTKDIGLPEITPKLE
UniProt Q9Y6Q9, residues 392-1005: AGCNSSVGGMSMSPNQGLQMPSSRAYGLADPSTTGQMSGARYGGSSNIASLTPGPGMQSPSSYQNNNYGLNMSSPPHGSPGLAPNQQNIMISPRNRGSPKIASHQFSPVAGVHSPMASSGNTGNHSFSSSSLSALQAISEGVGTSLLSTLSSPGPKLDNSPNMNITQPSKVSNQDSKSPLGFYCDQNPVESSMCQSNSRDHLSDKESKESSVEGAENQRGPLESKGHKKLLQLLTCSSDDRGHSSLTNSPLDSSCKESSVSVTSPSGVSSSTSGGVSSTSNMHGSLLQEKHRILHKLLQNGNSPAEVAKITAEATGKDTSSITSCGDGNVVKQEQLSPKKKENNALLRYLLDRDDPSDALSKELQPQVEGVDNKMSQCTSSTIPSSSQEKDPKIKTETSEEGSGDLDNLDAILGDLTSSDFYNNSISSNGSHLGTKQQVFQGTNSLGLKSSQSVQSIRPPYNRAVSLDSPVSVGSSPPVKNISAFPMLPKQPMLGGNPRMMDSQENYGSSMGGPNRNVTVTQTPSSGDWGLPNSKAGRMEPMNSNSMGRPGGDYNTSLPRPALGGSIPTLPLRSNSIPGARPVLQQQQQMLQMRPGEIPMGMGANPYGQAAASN

B1: pVP16-human VDR (human vitamin D receptor) (receptor, UniProt P11473 1-427)
chain: MEAMAASTSLPDPGDFDRNVPRICGVCGDRATGFHFNAMTCEGCKGFFRRSMKRKALFTCPFNGDCRITKDNRRHCQACRLKRCVDIGMMKEFILTDEEVQRKREMILKRKEEEALKDSLRPKLSEEQQRIIAILLDAHHKTYDPTYSDFCQFRPPVRVNDGGGSHPSRPNSRHTPSFSGDSSSSCSDHCITSSDMMDSSSFSNLDLSEEDSDDPSVTLELSQLSMLPHLADLVSYSIQKVIGFAKMIPGFRDLTSEDQIVLLKSSAIEVIMLRSNESFTMDDMSWTCGNQDYKYRVSDVTKAGHSLELIEPLIKFQVGLKKLNLHEEEHVLLMAICIVSPDRPGVQDAALIEAIQDRLSNTLQTYIRCRHPPPGSHLLYAKMIQKLADLRSLNEEHSKQYRCLSFQPECSMKLTPLVLEVFGNEIS
binding [1]: binds | binding [2]: no binding | binding [3]: no binding

Reference: article PMC4391915
